{"source": "PubChem BioAssay AID720505 (Drosophila RNAi Screening Center, 2013)", "test": "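Knock-downs that reduce calcium influx once internal stores are emptied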 (primary screen)", "cells": "Drosophila S2R+ cells", "knock-down reagent": "long dsRNA against Drosophila genes", "conditions": "thapsigargin (2 µM) in calcium-free buffer to empty internal stores, then 2 mM calcium added back", "measurement": "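Fluo-4 signal in 384-well plates read on a FLIPR after thapsigargin (2 µM, calcium-free) store depletion and 2 mM calcium add-back; unnormalised mean endpoint per well; screen run twice, selected wells retested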", "direction": "calcium signal and retest calcium signal: higher = more calcium entry after store depletion", "active means": "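About 1500 genes called as lowering calcium entry, by varying amounts, judged against per-plate control wells with STIM1 as positive and Rho1 as negative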", "meaning of the calls": "active = called as lowering calcium entry; inactive = not called", "note": "The screen tested about 20,000 reagents; shown is a random part of those with a known target gene and a result. Over the whole deposit, about 2,100 (10%) got an active call. 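Raw plate signals without normalisation; calls rest on control-based scores that were not deposited; replicate 2 separates called from uncalled poorly.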 Reagents against one gene are numbered here. Not given: the amount of reagent, the time to read-out."}
{"target gene":"Arp1","dsRNA no.":1,"calcium signal, replicate 1":165,"calcium signal, replicate 2":115,"Outcome":"inactive"}
{"target gene":"Jon25Bi","dsRNA no.":1,"calcium signal, replicate 1":149,"calcium signal, replicate 2":99.6,"Outcome":"inactive"}
{"target gene":"CG14507","dsRNA no.":1,"calcium signal, replicate 1":136,"calcium signal, replicate 2":134,"Outcome":"inactive"}
{"target gene":"nvy","dsRNA no.":1,"calcium signal, replicate 1":197,"calcium signal, replicate 2":112,"retest calcium signal, replicate 1":142,"retest calcium signal, replicate 2":109,"Outcome":"inactive"}
{"target gene":"pirk","dsRNA no.":1,"calcium signal, replicate 1":200,"calcium signal, replicate 2":96.8,"Outcome":"inactive"}
{"target gene":"CG4678","dsRNA no.":1,"calcium signal, replicate 1":113,"calcium signal, replicate 2":127,"Outcome":"inactive"}
{"target gene":"CG4678","dsRNA no.":2,"calcium signal, replicate 1":89.3,"calcium signal, replicate 2":143,"Outcome":"inactive"}
{"target gene":"Cdk1","dsRNA no.":1,"calcium signal, replicate 1":88.8,"calcium signal, replicate 2":122,"Outcome":"inactive"}
{"target gene":"sn","dsRNA no.":1,"calcium signal, replicate 1":154,"calcium signal, replicate 2":151,"Outcome":"inactive"}
{"target gene":"CG15580","dsRNA no.":1,"calcium signal, replicate 1":91.3,"calcium signal, replicate 2":147,"Outcome":"inactive"}
{"target gene":"Antp","dsRNA no.":1,"calcium signal, replicate 1":113,"calcium signal, replicate 2":137,"Outcome":"inactive"}
{"target gene":"Antp","dsRNA no.":2,"calcium signal, replicate 1":124,"calcium signal, replicate 2":148,"Outcome":"inactive"}
{"target gene":"Past1","dsRNA no.":1,"calcium signal, replicate 1":211,"calcium signal, replicate 2":102,"Outcome":"inactive"}
{"target gene":"CG12237","dsRNA no.":1,"calcium signal, replicate 1":122,"calcium signal, replicate 2":112,"retest calcium signal, replicate 1":65.4,"retest calcium signal, replicate 2":90.4,"Outcome":"inactive"}
{"target gene":"CG12237","dsRNA no.":2,"calcium signal, replicate 1":121,"calcium signal, replicate 2":136,"Outcome":"inactive"}
{"target gene":"CG5455","dsRNA no.":1,"calcium signal, replicate 1":100,"calcium signal, replicate 2":156,"Outcome":"inactive"}
{"target gene":"CG1486","dsRNA no.":1,"calcium signal, replicate 1":182,"calcium signal, replicate 2":158,"Outcome":"inactive"}
{"target gene":"Sgt1","dsRNA no.":1,"calcium signal, replicate 1":89.3,"calcium signal, replicate 2":189,"Outcome":"inactive"}
{"target gene":"St4","dsRNA no.":1,"calcium signal, replicate 1":105,"calcium signal, replicate 2":162,"Outcome":"inactive"}
{"target gene":"pit","dsRNA no.":1,"calcium signal, replicate 1":126,"calcium signal, replicate 2":179,"Outcome":"inactive"}
{"target gene":"pit","dsRNA no.":2,"calcium signal, replicate 1":72,"calcium signal, replicate 2":90.2,"Outcome":"inactive"}
{"target gene":"und","dsRNA no.":1,"calcium signal, replicate 1":104,"calcium signal, replicate 2":131,"Outcome":"inactive"}
{"target gene":"RanGAP","dsRNA no.":1,"calcium signal, replicate 1":56.2,"calcium signal, replicate 2":156,"Outcome":"active"}
{"target gene":"CG31908","dsRNA no.":1,"calcium signal, replicate 1":66.2,"calcium signal, replicate 2":156,"Outcome":"inactive"}
{"target gene":"CG31908","dsRNA no.":2,"calcium signal, replicate 1":99.4,"calcium signal, replicate 2":98.8,"Outcome":"inactive"}
{"target gene":"NfI","dsRNA no.":1,"calcium signal, replicate 1":68.1,"calcium signal, replicate 2":145,"Outcome":"inactive"}
{"target gene":"Nak","dsRNA no.":1,"calcium signal, replicate 1":90.5,"calcium signal, replicate 2":105,"Outcome":"inactive"}
{"target gene":"Osi24","dsRNA no.":1,"calcium signal, replicate 1":120,"calcium signal, replicate 2":141,"Outcome":"inactive"}
